# From paper PMC5937170
# System: TBP + TFB
# Assay: EMSA
# Conditions: no TFB-RF1, no shift at 24 nM TFB, no strong shift at 96 nM TFB; EMSA: 15 ul, 70 C for 15 min, buffer per Ochs et al. 2012 (not given), 8% native PAGE; recombinant protein; label: Cy5 on forward primer; probe letters rebuilt from the primers and the genome
sequence,measurement,value
ACTATTTTGGAAATTAGTTAAAGCTTCTAAAAAAGCTTGTTGTTTTTCTGGGATTCAGACGGATTATTTACAAAAAAGGAAAGGAATATTGGTAGCTATA (double strand) [pf1011/1012 promoter region (EMSA)],binding result,binds more weakly

# For at least one entry, the source does not settle the construct or the ends of the probe. A weaker result is weaker than the reference pair of the same experiment.
